# Results reported in patent US20100184708A1, “USE OF GLY-PRO-GLU-OH (GPE) AS A THERAPEUTIC AGENT” (priority 2007, published 2010).
# Not every detail of the peptide structures is certain; ends, links or a residue may be inferred.
# Columns and labels:
# HCMV strain AD169 = assay: HCMV plaque reduction assay; assay type: cell-based; details: MRC-5 cells; peptide 10 micrograms per ml; 7-10 days
# [1] = tested on: hepatitis B virus (HBV) ayw strain; assay: HBV experimental assay (secreted HBV DNA, TaqMan PCR); assay type: cell-based; details: peptide 10 micrograms per ml; six days; HBV DNA in supernatant
smiles,measurement,setting,value
"NCC(=O)N1CCC[C@H]1C(=O)N[C@@H](CCC(=O)O)C(=O)O [IGF-I (1-3), Gly-Pro-Glu-OH]",% plaque reduction,HCMV strain AD169,2.9%
same,% inhibition of HBV replication in HEP G2 cells,[1],30.7%
